Data published in patent US20030162221A1.
Results are given in words; binding and its absence hold for the method and conditions named. Binding seen in cells or lysates may run through a third protein. Some binding calls cover weakened binding; strength is not graded here. Tags and fused reporters may be left off the sequences shown. Each block holds one binder with its values, some of them ahead of it.

How the values were obtained:
Test in all cases: anti-FLAG co-IP, LC-MS/MS
[1] = target: T1, Bfa1 (Saccharomyces cerevisiae) (UniProt P47113)
T1 sequence (looked up): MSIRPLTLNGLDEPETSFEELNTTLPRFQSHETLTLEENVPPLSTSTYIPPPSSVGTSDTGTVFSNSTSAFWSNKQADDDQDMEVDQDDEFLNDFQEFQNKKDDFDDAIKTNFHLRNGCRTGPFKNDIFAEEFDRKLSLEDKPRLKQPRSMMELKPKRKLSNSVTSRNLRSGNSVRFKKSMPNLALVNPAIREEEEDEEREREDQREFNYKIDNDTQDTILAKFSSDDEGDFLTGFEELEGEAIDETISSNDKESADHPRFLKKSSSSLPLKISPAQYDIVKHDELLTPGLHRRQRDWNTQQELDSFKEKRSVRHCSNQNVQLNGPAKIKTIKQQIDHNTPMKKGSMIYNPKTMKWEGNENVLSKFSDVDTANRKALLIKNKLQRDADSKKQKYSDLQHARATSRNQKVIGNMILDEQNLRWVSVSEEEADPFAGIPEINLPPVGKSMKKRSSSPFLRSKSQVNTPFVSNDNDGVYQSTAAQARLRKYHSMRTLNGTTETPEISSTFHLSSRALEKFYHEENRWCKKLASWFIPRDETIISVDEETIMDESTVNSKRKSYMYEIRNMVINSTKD

[2] = target: T2, Cdc15 (Saccharomyces cerevisiae) (UniProt P27636)
T2 sequence (looked up): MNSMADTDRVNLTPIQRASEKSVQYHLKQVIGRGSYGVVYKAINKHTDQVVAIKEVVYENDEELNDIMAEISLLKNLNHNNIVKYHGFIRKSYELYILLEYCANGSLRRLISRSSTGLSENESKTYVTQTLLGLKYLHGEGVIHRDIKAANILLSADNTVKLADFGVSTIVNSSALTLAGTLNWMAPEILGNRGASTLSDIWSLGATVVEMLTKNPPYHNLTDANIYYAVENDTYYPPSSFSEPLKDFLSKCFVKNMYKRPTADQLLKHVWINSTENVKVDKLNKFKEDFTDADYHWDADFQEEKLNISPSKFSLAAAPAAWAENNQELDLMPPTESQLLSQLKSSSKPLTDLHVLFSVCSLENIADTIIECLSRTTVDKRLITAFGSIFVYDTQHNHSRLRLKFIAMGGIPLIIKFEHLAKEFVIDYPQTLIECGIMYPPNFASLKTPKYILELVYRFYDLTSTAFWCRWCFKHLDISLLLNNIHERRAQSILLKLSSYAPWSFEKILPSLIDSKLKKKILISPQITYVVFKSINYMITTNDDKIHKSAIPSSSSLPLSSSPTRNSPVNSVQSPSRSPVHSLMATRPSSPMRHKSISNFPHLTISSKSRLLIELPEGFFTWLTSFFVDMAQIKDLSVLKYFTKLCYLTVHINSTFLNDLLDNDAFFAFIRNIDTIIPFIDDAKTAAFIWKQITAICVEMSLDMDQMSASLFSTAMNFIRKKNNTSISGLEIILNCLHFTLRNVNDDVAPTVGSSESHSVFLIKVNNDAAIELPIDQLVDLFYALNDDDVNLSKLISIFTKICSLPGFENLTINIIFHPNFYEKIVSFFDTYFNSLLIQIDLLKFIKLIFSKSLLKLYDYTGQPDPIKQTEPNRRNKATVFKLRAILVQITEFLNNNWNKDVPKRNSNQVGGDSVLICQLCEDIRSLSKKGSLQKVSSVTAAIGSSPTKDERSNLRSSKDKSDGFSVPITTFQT

[3] = target: T3, Kel1 (Saccharomyces cerevisiae) (UniProt P38853)
T3 sequence (looked up): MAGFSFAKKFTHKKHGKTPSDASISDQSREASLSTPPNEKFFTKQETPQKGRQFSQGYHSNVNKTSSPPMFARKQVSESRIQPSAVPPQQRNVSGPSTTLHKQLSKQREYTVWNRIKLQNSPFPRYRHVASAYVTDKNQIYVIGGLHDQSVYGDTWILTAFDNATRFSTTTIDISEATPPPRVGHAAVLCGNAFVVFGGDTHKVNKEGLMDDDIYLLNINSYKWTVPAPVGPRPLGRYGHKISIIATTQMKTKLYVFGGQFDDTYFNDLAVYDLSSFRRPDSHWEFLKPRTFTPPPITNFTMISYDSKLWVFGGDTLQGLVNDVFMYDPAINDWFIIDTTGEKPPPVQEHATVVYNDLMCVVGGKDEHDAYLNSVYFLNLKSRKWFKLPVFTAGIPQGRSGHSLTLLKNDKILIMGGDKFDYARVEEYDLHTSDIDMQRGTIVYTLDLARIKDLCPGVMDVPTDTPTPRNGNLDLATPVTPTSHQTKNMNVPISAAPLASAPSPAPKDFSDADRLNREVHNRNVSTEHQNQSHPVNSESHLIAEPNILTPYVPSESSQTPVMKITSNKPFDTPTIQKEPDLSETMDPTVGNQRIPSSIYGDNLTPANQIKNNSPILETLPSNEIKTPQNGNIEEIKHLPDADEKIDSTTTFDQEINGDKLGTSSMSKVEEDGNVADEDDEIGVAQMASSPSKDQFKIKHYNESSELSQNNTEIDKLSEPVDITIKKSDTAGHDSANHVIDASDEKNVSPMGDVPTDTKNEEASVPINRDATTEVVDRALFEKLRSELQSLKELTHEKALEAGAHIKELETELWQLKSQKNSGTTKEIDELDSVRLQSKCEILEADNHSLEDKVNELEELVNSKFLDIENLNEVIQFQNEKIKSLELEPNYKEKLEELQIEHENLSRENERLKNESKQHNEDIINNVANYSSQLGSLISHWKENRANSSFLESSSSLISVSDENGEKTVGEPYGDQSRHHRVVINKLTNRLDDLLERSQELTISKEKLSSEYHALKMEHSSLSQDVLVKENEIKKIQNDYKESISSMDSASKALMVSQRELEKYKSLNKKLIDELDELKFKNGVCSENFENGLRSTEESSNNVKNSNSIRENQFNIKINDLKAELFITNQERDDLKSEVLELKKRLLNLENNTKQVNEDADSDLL

[4] = target: T4, Clb2 (Saccharomyces cerevisiae) (UniProt P24869)
T4 sequence (looked up): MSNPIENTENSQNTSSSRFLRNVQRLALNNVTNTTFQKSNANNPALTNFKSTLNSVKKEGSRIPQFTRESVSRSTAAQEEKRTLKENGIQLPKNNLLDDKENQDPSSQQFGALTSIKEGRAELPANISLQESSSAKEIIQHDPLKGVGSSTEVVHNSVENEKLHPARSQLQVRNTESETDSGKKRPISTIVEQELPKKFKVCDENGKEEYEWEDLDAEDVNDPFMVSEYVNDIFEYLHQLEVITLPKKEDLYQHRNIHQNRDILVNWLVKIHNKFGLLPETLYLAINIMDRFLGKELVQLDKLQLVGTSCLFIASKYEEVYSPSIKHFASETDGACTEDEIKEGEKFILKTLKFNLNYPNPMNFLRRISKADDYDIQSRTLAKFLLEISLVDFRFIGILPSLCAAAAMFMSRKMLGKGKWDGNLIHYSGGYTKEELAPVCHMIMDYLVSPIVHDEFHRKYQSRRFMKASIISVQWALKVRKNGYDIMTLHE

[5] = target: T5, Hsl7 (Saccharomyces cerevisiae) (UniProt P38274)
T5 sequence (looked up): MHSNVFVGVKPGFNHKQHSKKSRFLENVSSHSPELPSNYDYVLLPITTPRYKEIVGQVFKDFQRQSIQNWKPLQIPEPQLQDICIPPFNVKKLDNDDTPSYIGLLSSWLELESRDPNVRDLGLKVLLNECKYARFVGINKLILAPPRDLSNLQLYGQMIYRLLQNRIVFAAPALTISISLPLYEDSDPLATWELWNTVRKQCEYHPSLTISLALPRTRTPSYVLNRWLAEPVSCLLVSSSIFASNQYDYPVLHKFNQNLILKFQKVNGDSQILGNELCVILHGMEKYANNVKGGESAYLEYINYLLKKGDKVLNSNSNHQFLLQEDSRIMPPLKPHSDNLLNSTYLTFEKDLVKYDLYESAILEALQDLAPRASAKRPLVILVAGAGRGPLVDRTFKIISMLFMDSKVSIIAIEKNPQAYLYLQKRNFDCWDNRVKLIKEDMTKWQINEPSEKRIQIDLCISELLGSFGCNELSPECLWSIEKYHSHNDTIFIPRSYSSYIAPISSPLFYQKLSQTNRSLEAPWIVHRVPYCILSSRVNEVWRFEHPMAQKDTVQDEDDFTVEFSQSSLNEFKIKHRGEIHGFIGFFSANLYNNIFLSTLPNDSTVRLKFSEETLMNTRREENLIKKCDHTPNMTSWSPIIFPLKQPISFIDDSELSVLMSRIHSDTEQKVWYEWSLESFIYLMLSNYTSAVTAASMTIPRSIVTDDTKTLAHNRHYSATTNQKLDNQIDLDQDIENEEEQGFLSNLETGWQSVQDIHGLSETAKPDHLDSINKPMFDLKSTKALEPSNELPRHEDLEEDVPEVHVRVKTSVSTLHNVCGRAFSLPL

binding [1]: binds | binding [2]: binds
B1: Tem1 (protein, Saccharomyces cerevisiae, UniProt P38987 1-245, looked up)
chain: MATPSTGANNSIPAVRNQVEVQVGLVGDAQVGKTSLMVKYVQNIYDKEYTQTLGVNFLKRKVSIRSTDIIFSIMDLGGQREFINMLPIATVGSSVIIFLFDLTRPETLSSIKEWYRQAYGLNDSAIPILVGTKYDLLIDLDPEYQEQISRTSMKYAQVMNAPLIFCSTAKSINIQKIFKIALAKIFNLTLTIPEINEIGDPLLIYKHLGGQQHRHHNKSQDRKSHNIRKPSSSPSSKAPSPGVNT

binding [3]: binds | binding [4]: binds | binding [5]: binds
B2: Swe1 (protein, Saccharomyces cerevisiae, UniProt P32944 1-819, looked up)
chain: MSSLDEDEEDFEMLDTENLQFMGKKMFGKQAGEDESDDFAIGGSTPTNKLKFYPYSNNKLTRSTGTLNLSLSNTALSEANSKFLGKIEEEEEEEEEGKDEESVDSRIKRWSPFHENESVTTPITKRSAEKTNSPISLKQWNQRWFPKNDARTENTSSSSSYSVAKPNQSAFTSSGLVSKMSMDTSLYPAKLRIPETPVKKSPLVEGRDHKHVHLSSSKNASSSLSVSPLNFVEDNNLQEDLLFSDSPSSKALPSIHVPTIDSSPLSEAKYHAHDRHNNQTNILSPTNSLVTNSSPQTLHSNKFKKIKRARNSVILKNRELTNSLQQFKDDLYGTDENFPPPIIISSHHSTRKNPQPYQFRGRYDNDTDEEISTPTRRKSIIGATSQTHRESRPLSLSSAIVTNTTSAETHSISSTDSSPLNSKRRLISSNKLSANPDSHLFEKFTNVHSIGKGQFSTVYQVTFAQTNKKYAIKAIKPNKYNSLKRILLEIKILNEVTNQITMDQEGKEYIIDYISSWKFQNSYYIMTELCENGNLDGFLQEQVIAKKKRLEDWRIWKIIVELSLALRFIHDSCHIVHLDLKPANVMITFEGNLKLGDFGMATHLPLEDKSFENEGDREYIAPEIISDCTYDYKADIFSLGLMIVEIAANVVLPDNGNAWHKLRSGDLSDAGRLSSTDIHSESLFSDITKVDTNDLFDFERDNISGNSNNAGTSTVHNNSNINNPNMNNGNDNNNVNTAATKNRLILHKSSKIPAWVPKFLIDGESLERIVRWMIEPNYERRPTANQILQTEECLYVEMTRNAGAIIQEDDFGPKPKFFI
